# Measurements taken from PubChem BioAssay AID1508600 (Functional Genomics Laboratory (NCATS/FGL), 2020).
# Hit rate of the full screen: of about 53,000 sequences, about 3,700 (7%) were called active.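 How the source made its calls: active means gene knockdowns whose robust z-score for IL-1 alpha signal is at least 2 or at most -2, so actives lie on both sides; inactive means the rest.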 The list shows a part of the results.
# Assay: Components of the Cytosolic LPS Sensing Pathway: Gene Identification via Genome-wide siRNA Screen;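 further: robust z of the log signal after scaling to non-targeting control siRNA wells of the plate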
# Settings: RAW264.7 macrophages, IL-1a HTRF, actives lie on both sides, screened at 100 nM (by protocol), cells primed 5 h with Pam3CSK4 first
# Method in brief: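 IL-1a HTRF of supernatants after 24 hour LipidA transfection of Pam3CSK4-primed (5 hours) RAW264.7 cells, 48h post-siRNA transfection (100 nM). Scores: percent of plate negative-control median, then log-based robust z-score.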
row,Sequence,z-score
1,GGAACAACGGAAAAGCGAGTT against Ankrd1,inactive: 1.25
2,GGGAAUUUGCUCCUGAAAGTT against Pcdhb6,inactive: -0.936
3,UGUAUCUUUCUGUAGUUCUTT against Taar7e,inactive: 0.195
4,GCAAAGGGUGAUUCUUACCTT against Pifo,inactive: -0.431
5,GGACAAGCAGUGGCUAUUUTT against Arhgef19,inactive: -0.042
6,GGAAAGCACAGACAACAUATT against Rfxap,inactive: 0.139
7,GGAAUCAUCAGGUUCAUCATT against Fpr1,inactive: 0.661
8,GGAGUCCUCAAUACUUUCUTT against Iffo2,inactive: -0.102
9,GGACCAGCUAAAUAUUAGUTT against Rgs2,inactive: -0.315
10,GGCAGUGGAGUUAACAACATT against Dsg1b,inactive: -0.12
11,GGUCAUCACGAUUGUUUUGTT against Cyp1a1,inactive: -0.16
12,GGAUCAUCUCAAGUCUUACTT against F7,inactive: 0.124
13,GGAAGAACUUCAGGAAAAUTT against Clec12a,inactive: -1.16
14,GUGGACUCCAAGCUACAAATT against Olfr1047,inactive: -0.968
15,GGUUGUAAACCACGUGGACTT against Adam8,inactive: 1.66
16,CGGAGCUCAAACAUCUGAUTT against Slirp,inactive: -1.61
17,GGUGUGCCUUUUCAAGAAATT against Hebp2,inactive: -1.38
18,GCUAGUCACCAUUCUGAUUTT against Olfr141,inactive: 0.105
19,GGCCAAGAAAAUCCUGUGGTT against Mfsd5,active: -2.71
20,GCUUCGAGAGUCAACUAUGTT against Mecom,inactive: 0.232
21,GGAGAAGUCUGGCAUCAUATT against Mapkapk5,inactive: 1.33
22,GGCUGAACCUCAAGGUCAUTT against Chst1,inactive: 0.409

row,Sequence,z-score
1,GAACUUUGCCAUUGAUUUGTT against Ndufs6,inactive: 1.63
2,ACUUCACGAUGGAAAAAUUTT against Gm9732,inactive: -1.63
3,GGCUUACUUGAAGCAUUUATT against Plcb4,active: 2.13
4,GGGCUUUCCUCAAGGUAGUTT against Olfr62,inactive: -1.39
5,GCCUGAUGUUGUUUCCAAATT against Lias,active: 2.67
6,CCCAUGAUCUGGAAGAGACTT against Il1a,active: -2.08
7,GGUUCAAGGAUGAAUUAGATT against Trappc6b,active: -2.03
8,GGCACUGUGUCAAGGUAAGTT against Ccdc142,inactive: -1.6
9,GGCUGAGGUGGUUACAUUATT against Coa7,inactive: 0.74
10,AAAGUUCGCCGUCUCUGGGTT against Olfr426,inactive: 0.448
11,GGGAUCAGAAAAGUUAACATT against Acaca,inactive: 0.785
12,GGGACAGUGGACCAUUAUGTT against Rnf8,active: -2.41
13,GGUCUACAUGUUCAAGUGUTT against Laptm5,inactive: 1.62
14,GGAGCUACCUCUGGAUACATT against Tmem269,inactive: 1.28
15,GGCUGAGAUCAAGAGGAUCTT against Ap2a1,inactive: 1.58
16,CCAGUGGAUGAGGUCAUUGTT against Rnf208,inactive: -0.992
17,GGACAUUUUUGACAUCAUATT against Tubg1,inactive: 0.0604
18,GGAGAAGGCAACUUCUGUUTT against Zfp641,inactive: 0.19
19,CGAUCACCAUGAUGAAUUCTT against Bex3,inactive: -0.128
20,GGUUGAAUUGGAGAAGAUUTT against Pcnt,inactive: -1.76
21,CCGUCAGAAUCAAGCUUUUTT against Primpol,inactive: 0.729
22,GCCAUCGCUAACUUACGGATT against Gdpd5,inactive: -1.81

row,Sequence,z-score
1,CGAGAGAGUGUUACCAUCGTT against Prkd3,inactive: -0.858
2,GCUCAUCUCCUUGAAUUCATT against Agbl5,inactive: 0.31
3,GGGCCCAGAUUUCAAUGGGTT against Car14,inactive: 0.379
4,GGCUUUCCUUCGGAAGAAUTT against Abca14,inactive: -1.15
5,GGUAGGUCGUCGAGAAUACTT against Prss44,inactive: 0.17
6,GGACGACAAGGACUUCACGTT against Kcna1,inactive: -1.57
7,CCACCCUGCCUAGAAACUUTT against Pgap6,inactive: -0.32
8,CGGAAAGCAUUAAAGCUAUTT against Bbs7,inactive: -0.0491
9,GGUAAACUGCUCAAGAUGUTT against Ceacam12,inactive: 0.832
10,GGAGCUGUUUUUCCACUCCTT against Phlda2,inactive: -0.337
11,GUCAGAAAGAGAAGCUCGATT against Rps28,inactive: -0.457
12,CCACCAAAGGAGAAAGAGATT against Tcea3,inactive: -0.46
13,CCAAUUACGGACUGUGUGUTT against Wfdc2,inactive: -0.335
14,GGUCUUUGACAGAAUAAAATT against Yipf1,inactive: 1.94
15,GCCAUAAUGCUAUUGUUCATT against Cacna1b,inactive: 1.79
16,GCAGAUGUCAUGGUAACUCTT against Kmt5b,inactive: -0.459
17,GCUCCUACAAAACAUCCGATT against A130079P16Rik,active: -2.12
18,CCCAAUCCUCCCAUGUUUCTT against Usp22,inactive: -0.619
19,GGAGCUAUGUUCAGUUCUUTT against Qsox1,inactive: 0.438
20,GCGACAAAUGUAGCCCUUGTT against Mrpl36,inactive: -0.0686
21,GCCUAAGAAAUUAGUGAAUTT against Rflna,inactive: 0.204
22,CCAUUGUUCCAUUCUAAGUTT against Sema7a,inactive: 0.857

row,Sequence,z-score
1,CCCGGAAACAACACAUUGCTT against Tyrobp,active: 2.88
2,CCUAUAUUUUCAAAGAUGGTT against Gstm1,inactive: -0.126
3,GACUGGAUUUUAGUUCAUUTT against A130014H13Rik,inactive: 0.738
4,CCAGGGUGGUCUUUUGAAGTT against Eif1,inactive: -1.66
5,GCAGAAGUACGAUGGAAUCTT against Rpl11,inactive: 0.73
6,GGCUGAUUCUCAUCACAUUTT against E130309D02Rik,inactive: 0.0413
7,GGUCAAAGAUGCAUUGAAGTT against Glmn,inactive: -0.324
8,GGUUUUUCAGAAAUUAGUGTT against Olfr1163,inactive: -0.24
9,GCCAGUCUAUGCAAACCCUTT against Foxo3,inactive: -1.12
10,GCUAGUCCUCAAGCUUCUGTT against Snapc2,inactive: 0.28
11,CCUUGUACAACACUGGCCGTT against Car11,inactive: -0.356
12,GGUGUUCAACUCCACUAUGTT against Nhlrc1,inactive: 0.511
13,CCUCAUGUAAUUGGACCAATT against Eef1akmt2,inactive: 0.642
14,CGAAUGUCUCACUCAUUGCTT against Tmem106c,inactive: 0.676
15,GGAUUUUGCACAAACAGAATT against Col11a1,inactive: -1.07
16,GCUCGAUGUGAACUGCUAGTT against Ankrd9,active: 2.12
17,GGAUGAGAACUACAUGAUCTT against Card10,inactive: 0.787
18,GCUUAGGAGAAAGAGCAAUTT against Gpr139,inactive: 0.185
19,GGAAAAUUUGCUGUGGUUATT against Stk17b,inactive: 0.405
20,GGACUAUGCCAAUGUCAGATT against Zfp763,inactive: 0.0585
21,GGGCUUAUGGAGUUGUAAATT against Avpi1,inactive: -0.633
22,GGUCAUGCAAGACAAGAUCTT against Lrrc8c,inactive: 0.487

# Look-ups from the list:
# z-score, GCCAGUCUAUGCAAACCCUTT against Foxo3 is entered as inactive: -1.12
# z-score, GCUUAGGAGAAAGAGCAAUTT against Gpr139 is entered as inactive: 0.185

# More records follow:

row,Sequence,z-score
1,AAUGCUAUUAUACCAACUGTT against Vmn1r214,inactive: 0.86
2,GGAAACCAGGUCUCAGAGUTT against Pde4a,inactive: -0.146
3,GCAGUUAAUACUUACCGCGTT against A430057M04Rik,inactive: 0.657
4,GGCCCUCCCAAAUCAUUUGTT against Slc30a6,inactive: 0.188
5,CGUUUCAACAAGCUCGUGUTT against Rbmxl2,inactive: 1.02
6,GGCAGAAAAUUCUUACAAATT against Spats2l,inactive: 0.935
7,GCAAGUGAUGAAUGCUUACTT against Ncln,active: -2.62
8,GGCAAGGUUCUUGUUUUUATT against Fam187b,inactive: 0.966
9,GCUUAACCUCAGAGAUGAUTT against Mbip,inactive: -0.841
10,GGAAUUAUUCAUGACACAGTT against Hspa9,inactive: 1.32
11,GGAGAUGGGCUUCUAUAUUTT against Nle1,inactive: 0.342
12,GCAAGAAUUAAGUCAGUGGTT against Exoc3l,inactive: -1.56
13,GGAAUCCAGAACUUGAUCGTT against Mfn1,inactive: 0.384
14,GCUCGUGUACCUCUAUCUGTT against Ap2b1,inactive: 0.0179
15,GCCUUGCCCUGACUAUGUUTT against Paqr3,inactive: 0.0997
16,GCUAAAGAACGGUAUAUCGTT against Agxt2,inactive: 0.645
17,GGAUCUGGGAAUCACCUCUTT against Trpv6,inactive: -1.82
18,GGAAGAAGUCCAACAGCACTT against Foxj3,inactive: -1.96
19,GGCUACCCUUUUGAACCUCTT against Psmd3,active: -2.81

# Retrieved one by one from the list above (3):
row,Sequence,z-score
16,GCUAAAGAACGGUAUAUCGTT against Agxt2,inactive: 0.645
2,GGAAACCAGGUCUCAGAGUTT against Pde4a,inactive: -0.146
19,GGCUACCCUUUUGAACCUCTT against Psmd3,active: -2.81
